In article PMC4444329, “Disabling Mitochondrial Peroxide Metabolism via Combinatorial Targeting of Peroxiredoxin 3 as an Effective Therapeutic Approach for Malignant Mesothelioma” (PLoS ONE, 2015):
No constants are given. Whether binding was seen depends on the method and setting. For part of these data: Binding seen in cells or lysates may run through a third protein. Some binding calls cover weakened binding; strength is not graded here. For part of these data: Tags and fused reporters may be left off the sequences shown.

Assays:
[1] = molecular target: FLAG-tagged human PRX3, wild type (human) (UniProt P30048); assay: cross-linking; cells treated with TS (5 μM, with or without gentian violet pre-incubation; also tumors of mice given 50 mg/kg TS); lysates on reducing SDS-PAGE, immunoblot for PRX3; 35-40 kDa band immunoprecipitated and tryptic peptides read by LC-MS/MS
[2] = molecular target: Peroxiredoxin 3 (PRX3), endogenous in human mesothelioma and mesothelial cells (human (endogenous in HM cells)) (UniProt P30048); assay: non-reducing SDS-PAGE and immunoblot (disulfide-bonded dimers); HM cells treated with TS, GV or TS + GV for 18 hr; extracts on non-reducing SDS-PAGE, PRX3 monomers (~23 kD) and disulfide-bonded dimers (~46 kD) by immunoblot
[3] = molecular target: Peroxiredoxin 3 (PRX3), endogenous in human mesothelioma and mesothelial cells (human (endogenous in HM cells)) (UniProt P30048); assay: cross-linking; cells treated with TS (5 μM, with or without gentian violet pre-incubation; also tumors of mice given 50 mg/kg TS); lysates on reducing SDS-PAGE, immunoblot for PRX3; 35-40 kDa band immunoprecipitated and tryptic peptides read by LC-MS/MS

B1: FLAG-tagged human PRX3, wild type (enzyme, UniProt P30048 62-256)
chain: APAVTQHAPYFKGTAVVNGEFKDLSLDDFKGKYLVLFFYPLDFTFVCPTEIVAFSDKANEFHDVNCEVVAVSVDSHFSHLAWINTPRKNGGLGHMNIALLSDLTKQISRDYGVLLEGSGLALRGLFIIDPNGVIKHLSVNDLPVGRSVEETLRLVKAFQYVETHGEVCPANWTPDSPTIKPSPAASKEYFQKVNQ
B1 was tested, and the binding [1] was “binds”.

B2: Peroxiredoxin 3 (PRX3), endogenous in human mesothelioma and mesothelial cells (enzyme, UniProt P30048 62-256)
chain: APAVTQHAPYFKGTAVVNGEFKDLSLDDFKGKYLVLFFYPLDFTFVCPTEIVAFSDKANEFHDVNCEVVAVSVDSHFSHLAWINTPRKNGGLGHMNIALLSDLTKQISRDYGVLLEGSGLALRGLFIIDPNGVIKHLSVNDLPVGRSVEETLRLVKAFQYVETHGEVCPANWTPDSPTIKPSPAASKEYFQKVNQ
In the case of B2, the binding [2] is reported as “binds” and the binding [3] is reported as “binds”.
